According to paper PMC6504876, “TFIIE orchestrates the recruitment of the TFIIH kinase module at promoter before release during transcription” (Nature Communications, 2019):
No constants are given. Whether binding was seen depends on the method and setting. In cells and extracts the contact can be indirect. Some binding calls cover weakened binding; strength is not graded here.

Chains of the proteins cited; added tags and fusions are not shown. Lines headed by an entry give the natural chain unless they say otherwise; changes in a name come on top.
UniProt P50613: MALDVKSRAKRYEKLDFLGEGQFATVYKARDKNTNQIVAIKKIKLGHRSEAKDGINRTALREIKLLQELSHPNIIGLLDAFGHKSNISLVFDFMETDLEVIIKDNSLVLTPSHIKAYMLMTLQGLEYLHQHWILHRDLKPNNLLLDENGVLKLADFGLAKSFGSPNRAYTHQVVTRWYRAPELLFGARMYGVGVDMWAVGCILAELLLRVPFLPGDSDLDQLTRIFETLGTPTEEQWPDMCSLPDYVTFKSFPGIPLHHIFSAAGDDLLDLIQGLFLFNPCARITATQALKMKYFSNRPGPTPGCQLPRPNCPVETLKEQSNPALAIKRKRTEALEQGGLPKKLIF

Target: CAK, the kinase module of TFIIH (CDK7, MAT1, Cyclin H) (UniProt P50613)
Test: co-IP; Supplementary Fig. 4, legend not shown; the methods describe only co-immunoprecipitation of purified factors on protein G magnetic beads, washes at 150 or 500 mM KCl

B1: His-TFIIEβ/WT (natural protein, UniProt P29084 1-291, looked up)
chain: MDPSLLRERELFKKRALSTPVVEKRSASSESSSSSSKKKKTKVEHGGSSGSKQNSDHSNGSFNLKALSGSSGYKFGVLAKIVNYMKTRHQRGDTHPLTLDEILDETQHLDIGLKQKQWLMTEALVNNPKIEVIDGKYAFKPKYNVRDKKALLRLLDQHDQRGLGGILLEDIEEALPNSQKAVKALGDQILFVNRPDKKKILFFNDKSCQFSVDEEFQKLWRSVTVDSMDEEKIEEYLKRQGISSMQESGPKKVAPIQRRKKPASQKKRRFKTHNEHLAGVLKDYSDITSSK
notes: TFIIEβ, the β subunit of the general transcription factor TFIIE, encoded by GTF2E2; also called rIIEβ/WT; the β subunit of rIIEαβ/WT; source: E. coli, purified; alone or co-produced with rIIEα/WT
binding: binds
